## Library screening results

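Viability assay of Plasmodium falciparum sporozoites; the read-out is not stated. The concentration is filed as 10 mM, unlikely as a test dose, so the dose is not known. Direction is inferred from retests: higher values go with lower viability. Strong results were mostly tested again. About 34,000 compounds were tested under these conditions; 0.84% (about 280) showed 50% or more at least once.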

Values are the deposited “Percent Effect”, in %.
How 0% and 100% were set is not recorded. Most values in the screen are low, and negative values occur.
This is an unselected part of the compounds tested.
Two or more numbers in one place are separate tests of the same structure; such repeats can differ widely.

Compound,Percent Effect
Cn1cnc2c1CCN(Cc1ccc(C(=O)N3CCCC3)cc1)C2,16.43%
Cc1ccc(N2CCCN(C(=O)CCc3nccs3)CC2)nn1,-5.952%
O=C(O)C(F)(F)F.[H][C@@]12CCN(Cc3ccccc3)C[C@@]1([H])O[C@H](C(=O)NC1CC1)C2,-0.2604%
COc1cccc(CNc2nc(N3CCOCC3)ns2)c1OC,-33.77%
Cc1cnc2[nH]c(C(F)(F)F)c(CN3CCSCC3)c2c1,10.72%
Cc1cc(CN(C)C(=O)C2CCCN(C(=O)c3ccc(Cl)cc3)C2)no1 (centres unmarked),3.49%
COCCNc1ccc(CNC(=O)Nc2cn[nH]c2)cc1,2.714%
CCCN(Cc1nnnn1C1CC1)CC1COc2ccccc2O1 (centres unmarked),-2.336%
CNc1ncc(C(=O)N2CCOC(C(=O)Nc3ccccc3)C2)cn1 (centres unmarked),8.589%
CCn1c(C)cc(C(=O)N2CCCC(n3nc(C)nc3C)C2)c1C (centres unmarked),0.4831%
O=C(O)C(F)(F)F.O=C(c1cccnc1)N1CCc2ncnc(N3CCOCC3)c2CC1,-2.241% & -13.11% & -10.39%
CCN(Cc1noc(C)n1)C(=O)CCn1c(C)cc2ccccc21,3.7%
Cc1nccc(NCc2cncc3c2CCN(CCN(C)C)C3)n1,10.29%
[H][C@@]12CCN(C(=O)c3cnccn3)C[C@@]1([H])O[C@H](c1ccncn1)C2,-29.68%
Cc1cnn(C2CCCN(C(=O)CCc3ccncc3)C2)c1 (centres unmarked),5.919%
Cc1ccoc1-c1nnc(CN2CCn3c(nnc3C3CC3)C2)o1,-3.676%
[H][C@]12CCN(C(=O)CC(C)C)CC[C@@]1([H])S(=O)(=O)CCN2S(C)(=O)=O,-0.9019%
N#Cc1ccnc(N2CCN(C(=O)NC3CCS(=O)(=O)C3)CC2)c1 (centres unmarked),12.61%
COc1cccc(CN2CCC(Cc3cnc(CN(C)C)cn3)CC2)c1,4.794%
CCc1noc(CNC2CCCN(Cc3noc(C4CC4)n3)C2)n1 (centres unmarked),5.952%
[H][C@@]12CCN(CCOCc3ccccc3)[C@]1([H])CC[C@@H](C(=O)NCC1CC1)O2,10.14%
Cc1nc2ncnn2c2ccn(-c3cccnc3O)c(=O)c12,-0.1776%
CC(NC(=O)NCCCn1cccn1)c1ccncc1 (centres unmarked),-16.42%
Cc1nc(Nc2nncs2)cc(C2CNC2)n1.O=C(O)C(F)(F)F,1.63%
Cc1cccc2c1CCN(c1cc(N3CCCC3CO)ncn1)C2 (centres unmarked),-6.689%
O=S(=O)(C1CC1)N1CCc2c(CN3CCOCC3)cncc2C1,6.066%
CC(NC(=O)CCn1cncn1)c1nnc2n1CCCCC2 (centres unmarked),-0.5333%
Cc1cc(CN2CCc3c(CNc4ncccn4)cncc3C2)oc1C.Cl.Cl,4.545%
COc1c(C(=O)NC(C)Cc2ccccc2Cl)c(C)nn1C (centres unmarked),0.9516%
CN(CCCOc1ccccc1Cl)C(=O)CN1C(=O)CCNC1=O,2.855%
CC(C)NC(=O)NC(C)c1ccc(-c2ccncc2)cc1 (centres unmarked),-1.427%
O=C(CCc1ccsc1)N1CCC(Cc2ccc(CO)cc2)C1 (centres unmarked),-10.97%
Cn1ccnc1CN1CCCCC1Cn1cccn1 (centres unmarked),12.89%
CCN1CCCc2cc(CN3CCc4nc(C)[nH]c(=O)c4C3)ccc21,4.883%
CC(C)N(C)Cc1cnc2n1CCN(C(=O)c1cccs1)C2,11.45%
Cc1csc(N2CCN(C(=O)Cc3cccs3)CC2)n1,3.735%
O=C(O)C(F)(F)F.O=C(O)C(F)(F)F.c1nc(CNC2CCOCC2)c2n1CCCN(CC1CC1)C2,-0.1189%
N#Cc1cccnc1NCCNC(=O)N1CCCSCC1,7.176%
CCC(CN1CCCC1)n1cncc1-c1cnn(-c2ccc(F)cc2)c1.Cl (centres unmarked),17.32%
CN(CCc1ccc(F)cc1)Cc1nc2c(cnn2C)c(=O)[nH]1,0.8965%
O=C(CCCN1CCCCC1)N1CCC(c2nnc[nH]2)CC1,-16.39% & -14.4%
O=S1(=O)N(c2ccccc2)C[C@@H](O)[C@]12CCNC2,-0.4785%
COCCN1CCOCC12CCN(c1nccs1)CC2.O=C(O)C(F)(F)F,-1.959%
Cl.O=C(CCC1CCCC1)N1CCCC(c2ncc3c(n2)CCNC3)C1 (centres unmarked),-3.754%
CCn1ccc(-c2cc(NCCCOc3cccc(C)c3)nc(C)n2)n1,-2.872%
COc1ccc(-c2cc(C3CCNCC3)nc(C)n2)cc1.Cl,12.53%
COc1ncccc1C(=O)N1CC[C@]2(C[C@@H](Oc3cccnc3)CO2)C1.O=C(O)C(F)(F)F.O=C(O)C(F)(F)F,-0.8663%
CC(C)C(=O)NC1CCCc2nc(N3CCOCC3)ncc21 (centres unmarked),-8.963%
O=C1CC(c2ccco2)c2sc(C(=O)O)c(-c3ccccc3)c2N1 (centres unmarked),-2.183%
CN(C)C(=O)N1CCC2(CCC(C(=O)N3CCCC3)O2)CC1 (centres unmarked),-4.619%

6 of the entries, repeated:

Compound,Percent Effect
CC(C)NC(=O)NC(C)c1ccc(-c2ccncc2)cc1 (centres unmarked),-1.427%
COCCN1CCOCC12CCN(c1nccs1)CC2.O=C(O)C(F)(F)F,-1.959%
[H][C@@]12CCN(C(=O)c3cnccn3)C[C@@]1([H])O[C@H](c1ccncn1)C2,-29.68%
O=C(O)C(F)(F)F.[H][C@@]12CCN(Cc3ccccc3)C[C@@]1([H])O[C@H](C(=O)NC1CC1)C2,-0.2604%
[H][C@]12CCN(C(=O)CC(C)C)CC[C@@]1([H])S(=O)(=O)CCN2S(C)(=O)=O,-0.9019%
Cc1nc2ncnn2c2ccn(-c3cccnc3O)c(=O)c12,-0.1776%

The values are deposited in ChEMBL (CHEMBL3988442, “University of Dundee, Small-Polar-MMV Screening Library” (2021)).